Measurements reported in PubChem BioAssay AID504764 (Drosophila RNAi Screening Center, 2011)
The screen tested about 22,000 reagents; this is an unselected part of those with a known target gene and a result. In the full data, 403 (1.9%) were called active. 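Unnormalised raw counts per well; ratio z-scores behind the hit calls and whether each hit raises or lowers signal are not deposited.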 A number with no mark means an inactive call. Reagents against one gene are numbered here. A plus sign joins genes that one reagent is predicted to hit. Not stated in the record: the amount of reagent.

Test: 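Knock-downs that raise or lower a Notch target reporter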 (primary screen)
Cells: Drosophila Kc167 cells
Reagents: long dsRNA against Drosophila genes
Timing: about 5 days (4 days dsRNA, then 24 h after transfection)
Conditions: transfection of constitutively active membrane-tethered Notch lacking the extracellular domain, read 24 h later
Measurement: 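Firefly luciferase from an E(spl)m3 reporter with active Notch, plus control-promoter and uninduced reporter wells for normalisation; unnormalised counts, duplicate wells a and b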
Reading the numbers: induced reporter light, run 1, well a and induced reporter light, run 1, well b: higher = more light from the Notch target reporter with active Notch; control promoter light, run 1, well a and control promoter light, run 1, well b: higher = more light from the viral control promoter (cell number, transfection, viability); uninduced reporter light, run 1, well a: higher = more light from the Notch target reporter without active Notch
Call rule: 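Hit if the duplicate-averaged log2 ratio of induced to control-promoter light gives a plate-wise z beyond ±2, or induced to uninduced beyond ±1.8; weak-control or discordant-duplicate wells dropped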
Meaning of the calls: active = modifier hit (raised or lowered Notch signal); inactive = not a hit

Kal1 (Kallmann syndrome 1)
- induced reporter light, run 1, well a: 1.33e5
- induced reporter light, run 1, well b: 1.47e5
- control promoter light, run 1, well a: 1.62e5
- control promoter light, run 1, well b: 1.70e5
- uninduced reporter light, run 1, well a: 13250

CG7382
- induced reporter light, run 1, well a: 1.43e5
- induced reporter light, run 1, well b: 1.80e5
- control promoter light, run 1, well a: 1.76e5
- control promoter light, run 1, well b: 1.78e5
- uninduced reporter light, run 1, well a: 13705

woc (without children)
- induced reporter light, run 1, well a: 1.56e5
- induced reporter light, run 1, well b: 2.03e5
- control promoter light, run 1, well a: 2.29e5
- control promoter light, run 1, well b: 2.92e5
- uninduced reporter light, run 1, well a: 11188

Gs2 (Glutamine synthetase 2)
- induced reporter light, run 1, well a: 1.01e5
- induced reporter light, run 1, well b: 1.07e5
- control promoter light, run 1, well a: 1.73e5
- control promoter light, run 1, well b: 1.44e5
- uninduced reporter light, run 1, well a: 7130

Dcps (Decapping enzyme, scavenger)
- induced reporter light, run 1, well a: 1.21e5
- induced reporter light, run 1, well b: 1.14e5
- control promoter light, run 1, well a: 89035
- control promoter light, run 1, well b: 86695
- uninduced reporter light, run 1, well a: 10500

Amph (Amphiphysin)
- induced reporter light, run 1, well a: 74060
- induced reporter light, run 1, well b: 83165
- control promoter light, run 1, well a: 65655
- control promoter light, run 1, well b: 52170
- uninduced reporter light, run 1, well a: 7030

Bre1
- induced reporter light, run 1, well a: 1.13e5
- induced reporter light, run 1, well b: 1.14e5
- control promoter light, run 1, well a: 88965
- control promoter light, run 1, well b: 82715
- uninduced reporter light, run 1, well a: 11665

Already shown: entries from further up.
Dcps (Decapping enzyme, scavenger)
- induced reporter light, run 1, well a: 1.21e5
- induced reporter light, run 1, well b: 1.14e5
- control promoter light, run 1, well a: 89035
- control promoter light, run 1, well b: 86695
- uninduced reporter light, run 1, well a: 10500

Amph (Amphiphysin)
- induced reporter light, run 1, well a: 74060
- induced reporter light, run 1, well b: 83165
- control promoter light, run 1, well a: 65655
- control promoter light, run 1, well b: 52170
- uninduced reporter light, run 1, well a: 7030

Further entries follow.
nerfin-1 (nervous fingers 1)
- induced reporter light, run 1, well a: 1.46e5
- induced reporter light, run 1, well b: 1.32e5
- control promoter light, run 1, well a: 1.97e5
- control promoter light, run 1, well b: 2.12e5
- uninduced reporter light, run 1, well a: 6705

TwdlW (TweedleW)
- induced reporter light, run 1, well a: 2.25e5
- induced reporter light, run 1, well b: 2.18e5
- control promoter light, run 1, well a: 2.11e5
- control promoter light, run 1, well b: 1.89e5
- uninduced reporter light, run 1, well a: 16115

CG9171
- induced reporter light, run 1, well a: 63765
- induced reporter light, run 1, well b: 72855
- control promoter light, run 1, well a: 67155
- control promoter light, run 1, well b: 65145
- uninduced reporter light, run 1, well a: 4670

CG31262
- induced reporter light, run 1, well a: 1.40e5
- induced reporter light, run 1, well b: 1.47e5
- control promoter light, run 1, well a: 1.80e5
- control promoter light, run 1, well b: 1.57e5
- uninduced reporter light, run 1, well a: 9375

Spn77Bb + Spn77Bc #1
- induced reporter light, run 1, well a: 1.12e5
- induced reporter light, run 1, well b: 94185
- control promoter light, run 1, well a: 79745
- control promoter light, run 1, well b: 76590
- uninduced reporter light, run 1, well a: 7285

Spn77Bb + Spn77Bc #2
- induced reporter light, run 1, well a: 1.02e5
- induced reporter light, run 1, well b: 1.10e5
- control promoter light, run 1, well a: 91295
- control promoter light, run 1, well b: 87010
- uninduced reporter light, run 1, well a: 8195

Spf45
- induced reporter light, run 1, well a: 36375
- induced reporter light, run 1, well b: 32375
- control promoter light, run 1, well a: 40065
- control promoter light, run 1, well b: 38005
- uninduced reporter light, run 1, well a: 2825

CG5938
- induced reporter light, run 1, well a: 1.34e5
- induced reporter light, run 1, well b: 1.65e5
- control promoter light, run 1, well a: 2.31e5
- control promoter light, run 1, well b: 2.24e5
- uninduced reporter light, run 1, well a: 12395

Nrd1 (Nardilysin)
- induced reporter light, run 1, well a: 1.35e5
- induced reporter light, run 1, well b: 1.24e5
- control promoter light, run 1, well a: 1.94e5
- control promoter light, run 1, well b: 1.87e5
- uninduced reporter light, run 1, well a: 10020

HP1b (Heterochromatin Protein 1b)
- induced reporter light, run 1, well a: 59470
- induced reporter light, run 1, well b: 62035
- control promoter light, run 1, well a: 71545
- control promoter light, run 1, well b: 63215
- uninduced reporter light, run 1, well a: 4435

CG15803
- induced reporter light, run 1, well a: 2.05e5
- induced reporter light, run 1, well b: 1.64e5
- control promoter light, run 1, well a: 2.00e5
- control promoter light, run 1, well b: 1.80e5
- uninduced reporter light, run 1, well a: 13720
